These are yes or no findings as the source states them, for the method shown. Binding seen in cells or lysates may run through a third protein. Some entries that bind do so weakly or less than the wild type. For some assays here: Tags and fused reporters may be left off the sequences shown.
Experiments:
[1] = molecular target: Ino80-13Myc (S. cerevisiae (budding yeast)) (UniProt P53115); assay: co-IP; anti-Myc (A-14, SC-789) on Protein G Dynabeads from extracts of yeast strains with Psh1-13Myc or Ino80-13Myc and overexpressed 3Flag-Cse4, gradient SDS-PAGE and immunoblot; Ino80-13Myc strains with PSH1 and with psh1Δ
[2] = molecular target: T1, Psh1-13Myc (S. cerevisiae (budding yeast)) (UniProt Q12161); assay: as above
T1 sequence: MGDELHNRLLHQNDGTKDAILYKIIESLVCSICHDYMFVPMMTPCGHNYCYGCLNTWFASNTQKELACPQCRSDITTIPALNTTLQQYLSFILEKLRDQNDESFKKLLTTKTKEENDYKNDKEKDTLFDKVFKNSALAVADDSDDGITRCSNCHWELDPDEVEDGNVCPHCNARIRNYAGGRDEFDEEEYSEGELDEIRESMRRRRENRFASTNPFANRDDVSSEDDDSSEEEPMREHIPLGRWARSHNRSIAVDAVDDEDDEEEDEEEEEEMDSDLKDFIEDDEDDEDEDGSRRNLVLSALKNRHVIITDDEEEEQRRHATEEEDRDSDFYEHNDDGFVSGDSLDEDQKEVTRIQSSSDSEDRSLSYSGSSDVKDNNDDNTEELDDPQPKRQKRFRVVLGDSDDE

Amino acid sequences for entries named in this document (tags omitted).
UniProt P53115: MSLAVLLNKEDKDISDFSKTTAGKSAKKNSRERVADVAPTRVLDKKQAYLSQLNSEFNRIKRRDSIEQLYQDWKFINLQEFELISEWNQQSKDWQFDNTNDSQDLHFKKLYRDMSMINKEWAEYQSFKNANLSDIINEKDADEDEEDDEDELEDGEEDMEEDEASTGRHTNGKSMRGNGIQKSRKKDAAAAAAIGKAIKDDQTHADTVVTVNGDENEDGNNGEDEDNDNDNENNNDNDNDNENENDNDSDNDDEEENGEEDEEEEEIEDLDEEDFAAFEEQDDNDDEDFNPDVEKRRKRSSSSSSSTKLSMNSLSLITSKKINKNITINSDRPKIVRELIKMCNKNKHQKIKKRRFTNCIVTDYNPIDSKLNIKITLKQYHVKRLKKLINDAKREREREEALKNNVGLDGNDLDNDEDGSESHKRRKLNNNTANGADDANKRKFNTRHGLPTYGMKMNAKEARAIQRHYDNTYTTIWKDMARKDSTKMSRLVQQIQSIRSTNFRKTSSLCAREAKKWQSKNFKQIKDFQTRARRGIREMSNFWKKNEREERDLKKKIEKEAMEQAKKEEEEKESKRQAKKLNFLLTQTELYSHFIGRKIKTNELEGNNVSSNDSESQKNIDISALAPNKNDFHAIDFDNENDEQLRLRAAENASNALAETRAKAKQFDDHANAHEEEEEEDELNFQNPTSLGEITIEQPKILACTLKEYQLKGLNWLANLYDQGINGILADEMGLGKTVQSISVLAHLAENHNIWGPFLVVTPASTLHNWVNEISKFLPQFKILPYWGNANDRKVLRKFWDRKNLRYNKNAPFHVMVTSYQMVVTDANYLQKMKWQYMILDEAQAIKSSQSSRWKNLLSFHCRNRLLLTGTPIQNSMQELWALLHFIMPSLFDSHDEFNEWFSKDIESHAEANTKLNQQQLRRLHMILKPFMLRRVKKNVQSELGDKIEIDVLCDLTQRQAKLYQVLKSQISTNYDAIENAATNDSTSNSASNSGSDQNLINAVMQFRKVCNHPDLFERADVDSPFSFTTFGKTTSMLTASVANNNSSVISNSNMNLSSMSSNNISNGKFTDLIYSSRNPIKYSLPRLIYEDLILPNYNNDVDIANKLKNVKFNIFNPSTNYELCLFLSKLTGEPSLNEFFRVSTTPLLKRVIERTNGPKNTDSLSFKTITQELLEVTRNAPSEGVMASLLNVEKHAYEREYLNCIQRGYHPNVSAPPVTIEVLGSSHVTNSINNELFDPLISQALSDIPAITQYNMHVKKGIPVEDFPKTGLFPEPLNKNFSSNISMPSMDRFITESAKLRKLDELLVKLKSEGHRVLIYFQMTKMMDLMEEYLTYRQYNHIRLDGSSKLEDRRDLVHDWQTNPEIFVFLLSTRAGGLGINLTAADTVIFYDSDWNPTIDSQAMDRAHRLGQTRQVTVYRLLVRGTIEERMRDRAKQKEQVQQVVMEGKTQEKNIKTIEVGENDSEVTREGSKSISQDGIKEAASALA
UniProt P36012: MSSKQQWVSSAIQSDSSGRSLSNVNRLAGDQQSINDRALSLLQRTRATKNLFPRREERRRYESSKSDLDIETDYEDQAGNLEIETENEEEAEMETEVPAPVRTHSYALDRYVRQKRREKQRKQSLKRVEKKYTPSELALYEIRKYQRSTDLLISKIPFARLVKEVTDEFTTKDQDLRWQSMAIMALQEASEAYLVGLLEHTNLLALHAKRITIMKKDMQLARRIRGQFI

**Q.** Which binding [1] does the source give for “3Flag-Cse4 (budding yeast CENP-A, overexpressed from pGAL-3Flag-CSE4) (from UniProt P36012 1-229)” here?
**A.** The binding was “binds”.

**Q.** And the binding [2]?
**A.** Its binding is “binds”.
